Measurements published in patent US20210145795A1 (priority 2018, published 2021).
For at least one compound, name, drawing or mass did not settle the structure.

Key:
USSR H1N1 virus = type: cell-based, influenza A virus
pdm H1N1 virus = type: cell-based, influenza A virus
[1] = system: extracellular Ca^2+ influx; assay: Fluo-8 intracellular Ca2+ monitoring assay (NPTr cells; TG also in other cell types); type: cell-based, pig; settings: priming with CPA up to 5 μM

For `CC(=O)C1=C(O)[C@@H]2[C@H]3c4c[nH]c5cccc(c45)C[C@H]3C(C)(C)N2C1=O` [CPA, Cyclopiazonic acid], the virus output (USSR H1N1 virus) was “no significant reduction in virus output”, the virus output (pdm H1N1 virus) was “no significant reduction in virus output” and the “extracellular Ca^2+ influx” value [1] was “did not elicit extracellular Ca^2+ influx”.
